{"source": "PubChem BioAssay AID651640", "about": "(Broad Institute, 2012)", "note": "The campaign covered roughly 350,000 compounds. About 6,000 (1.7%) were called active. This list was built around the results that the source calls inconclusive (neither active nor inactive); the mix of calls is not that of the screen. Cut-off read from the data, not from the text of the source: active = CPE inhibition above about 20% (passing the limit was not always enough); inconclusive = no clear call, values can overlap the other calls; tested in BHK-21 cells.", "data": [{"test": "protection of cells from dengue 2 killing – plate reader, single concentration, primary screen (AID 651640);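 note: 0% = median of neutral control wells and 100% = median of positive control wells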", "conditions": "DENV2-infected cells, cytopathic effect rescue, at 9.99 µM, active compounds read high", "values": [{"smiles": "COCCn1c(C)cc(/C=C2/SC(=O)N(CC(=O)N3CCCC3)C2=O)c1C", "CPE inhibition": "inconclusive: 30%"}, {"smiles": "C[C@@H]1CN([C@H](C)CO)C(=O)Cc2cc(NC(=O)Nc3ccc(C(F)(F)F)cc3)ccc2O[C@H]1CN(C)Cc1ccc(C(=O)O)cc1", "CPE inhibition": "active: 24.2%"}, {"smiles": "C[C@@H]1CN([C@H](C)CO)S(=O)(=O)c2ccc(C3=CCCC3)cc2O[C@@H]1CN(C)Cc1ccccn1", "CPE inhibition": "inactive: -0.181%"}, {"smiles": "CO[C@H]1CN(C)C(=O)c2cc(NC(=O)c3cnccn3)ccc2OC[C@@H](C)N(C(=O)C2CC2)C[C@H]1C", "CPE inhibition": "inconclusive: 20.8%"}, {"smiles": "C[C@@H]1CCCCO[C@@H](CN(C)S(C)(=O)=O)[C@@H](C)CN([C@H](C)CO)C(=O)c2cc(NC(=O)c3ccccc3)ccc2O1", "CPE inhibition": "active: 84.9%"}, {"smiles": "CCOC(=O)c1cn(C2CC2)c2c(F)c(NCCCN(C)C)c(F)cc2c1=O", "CPE inhibition": "inconclusive: 36.3%"}, {"smiles": "COc1ccc(-c2csc(NC(C)c3nc4cc(Cl)c(Cl)cc4n3CCCO)n2)cc1", "note": "(centres undefined)", "CPE inhibition": "inactive: 0.087%"}, {"smiles": "CCC(c1nnnn1-c1ccc2c(c1)OCCO2)N1CCN(CC)CC1", "note": "(centres undefined)", "CPE inhibition": "inconclusive: 20.2%"}, {"smiles": "CC(C)NC(=O)N(C)C[C@@H]1Oc2ccc(NC(=O)CCCCCC(=O)Nc3ccccc3N)cc2CC(=O)N([C@@H](C)CO)C[C@H]1C", "CPE inhibition": "inactive: -4.84%"}, {"smiles": "COc1ccc(-c2cc([C@H]3[C@@H]4C=CCC[C@@]4(C)C(=O)N3Cc3ccccc3)ccc2F)cc1OC", "CPE inhibition": "inconclusive: 49.1%"}, {"smiles": "CN(C(=O)COC(=O)c1ccc(S(=O)(=O)N2CCOCC2)cc1)c1ccccc1", "CPE inhibition": "active: 80.8%"}, {"smiles": "O=S(=O)(NC1CCN(Cc2ccc(OCCO)cc2)CC1)c1cc(C(F)(F)F)ccc1Cl", "CPE inhibition": "active: 28.9%"}, {"smiles": "Cc1noc(C)c1NC(=O)N(C)C[C@H]1Oc2c(NS(=O)(=O)c3cn(C)cn3)cccc2C(=O)N([C@H](C)CO)C[C@@H]1C", "CPE inhibition": "inconclusive: 20.3%"}, {"smiles": "Cc1cc(C)c(S(=O)(=O)N2CCC(C(=O)NCc3ccncc3)CC2)c(C)c1", "CPE inhibition": "inconclusive: 70.9%"}, {"smiles": "COc1ccc(CC(=O)OCC(=O)NCc2ccco2)cc1OC", "CPE inhibition": "inconclusive: 23.3%"}, {"smiles": "CCOC(=O)C(NC(=O)Nc1ccc(Cl)cn1)(Oc1ccc(F)cc1)C(F)(F)F", "note": "(centres undefined)", "CPE inhibition": "active: 77.6%"}, {"smiles": "CCCC#Cc1cnc2c(c1)C(=O)N([C@@H](C)CO)C[C@H](C)[C@@H](CN(C)CCC)O2", "CPE inhibition": "inactive: 11.1%"}, {"smiles": "Cc1cccc(C)c1NC(=O)C(c1ccc(C(F)(F)F)cc1)n1c(=O)c(-c2ccco2)nc2ccccc21", "note": "(centres undefined)", "CPE inhibition": "inconclusive: 21.1%"}, {"smiles": "O=C1N[C@@H](c2ccccc2)COC(=O)[C@@H](Cc2ccc(F)cc2)C/C=C\\C[C@@H]1CC(=O)N(CCO)Cc1ccccc1", "CPE inhibition": "inconclusive: 57.6%"}]}]}
